Patent publication US5008419A, “Novel platinum complex” (SS Pharmaceutical Co., Ltd., priority 1988, dated 1991)

What follows are compounds tested on L1210 leukemia cells (assay: Antitumor activity against L1210 leukemia in CDF1 mice (increase life span, survived ratio)). Details: from LD50 and ILS50.
Assay type: in vivo, CDF1 male mice
Experimental: CDF1 male mice (age: 6 weeks) consisting of 6 per each group were used to the test. 1×10^5 L1210 leukemia cells were intraperitoneally inoculated into each mouse. Test compounds dissolved in a solution of 0.5% CMC-Na in physiological saline were intraperitoneally administered to mice once a day for 5 consecutive days from the next day of the inoculation. A 0.5% CMC-Na solution in physiological saline was administered to the control group. […] All of these compounds are known compounds and Comparative Compounds a-c were disclosed in U.S. Pat. No. 4,169,846.
Observation was continued for consecutive 30 days after the administration. Increase life span (ILS) was determined according to the following equation: […]
wherein T is the mean survival days of the treated groups, and C is the mean survival days of the control groups.
Therapeutic index of compounds of this invention was determined according to the following equation. [formula]

Compound	Therapeutic index
N.N.O=C([O-])C1(C(=O)[O-])CCC1.[Pt+2] [Carboplatin]	6.4
(trans-dl-1,2-diaminocyclohexane) diethylmalonatoplatinum (II) [Compound No. 2]	51.9
(trans-dl-1,2-diaminocyclohexane) dimethylmalonatoplatinum (II) [Compound No. 1]	41.2
(trans-dl-1,2-diaminocyclohexane)-malonatoplatinum (II) [Comparative Compound a]	34.5
